Experimental data: article PMC3995692

T1: GFP-LMKB(1457–1742) (human) (UniProt Q9Y4F3)
T1 sequence: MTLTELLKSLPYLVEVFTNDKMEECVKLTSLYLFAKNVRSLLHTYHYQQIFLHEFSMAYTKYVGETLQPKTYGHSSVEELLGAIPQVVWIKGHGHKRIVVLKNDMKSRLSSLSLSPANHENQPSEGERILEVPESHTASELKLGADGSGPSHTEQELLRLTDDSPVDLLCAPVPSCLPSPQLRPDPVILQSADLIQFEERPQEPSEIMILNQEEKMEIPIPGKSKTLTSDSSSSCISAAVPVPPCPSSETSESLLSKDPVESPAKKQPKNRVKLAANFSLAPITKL

T2: GFP-LMKB(1622–1742) (human) (UniProt Q9Y4F3)
T2 sequence: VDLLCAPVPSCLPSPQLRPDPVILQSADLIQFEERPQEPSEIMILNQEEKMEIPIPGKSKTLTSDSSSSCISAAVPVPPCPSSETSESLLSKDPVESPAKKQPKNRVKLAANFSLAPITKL


Experiments:
[1] = target: T1, GFP-LMKB(1457–1742) (human); assay: co-IP; extracts of co-transfected COS-7 cells incubated with mouse anti-GFP antibodies and protein G Sepharose; co-precipitated FLAG-Ge-1 detected with anti-FLAG antibodies
[2] = target: T2, GFP-LMKB(1622–1742) (human); assay: as above
[3] = target: NLS-Ge-1 (Ge-1 fused to an exogenous nuclear localization sequence); assay: two-hybrid; modified two-hybrid assay inside HEp-2 cells: Ge-1 (whole or fragment) fused to an exogenous NLS localizes to nuclear dots; recruitment of co-expressed GFP- or RFP-fused LMBK partner (LMKB whole or fragments) to the nuclear dots read by immunofluorescence; cells fixed and stained 24 hours after transfection

Row | Molecule | binding [1] | binding [2] | binding [3]
1 | FLAG-Ge-1 | binds | binds | –
2 | GFP-LMKB(1–687) (domain or fragment, UniProt Q9Y4F3-1 1-687) MMEGNGTENSCSRTRGWLQQDNDAKPWLWKFSNCFSRPEQTLPHSPQTKEYMENKKVAVELKDVPSPLHAGSKLFPAVPLPDIRSLQQPKIQLSSVPKVSCCAHCPNEPSTSPMRFGGGGGGSGGTSSLIHPGALLDSQSTRTITCQVGSGFAFQSASSLQNASARNNLAGIASDFPSMCLESNLSSCKHLPCCGKLHFQSCHGNVHKLHQFPSLQGCTSAGYFPCSDFTSGAPGHLEEHISQSELTPHLCTNSLHLNVVPPVCLKGSLYCEDCLNKPARNSIIDAAKVWPNIPPPNTQPAPLAVPLCNGCGTKGTGKETTLLLATSLGKAASKFGSPEVAVAGQVLENLPPIGVFWDIENCSVPSGRSATAVVQRIREKFFKGHREAEFICVCDISKENKEVIQELNNCQVTVAHINATAKNAADDKLRQSLRRFANTHTAPATVVLVSTDVNFALELSDLRHRHGFHIILVHKNQASEALLHHANELIRFEEFISDLPPRLPLKMPQCHTLLYVYNLPANKDGKSVSNRLRRLSDNCGGKVLSITGCSAILRFINQDSAERAQKRMENEDVFGNRIIVSFTPKNRELCETKSSNAIADKVKSPKKLKNPKLCLIKDASEQSSSAKATPGKGSQANSGSATKNTNVKSLQELCRMESKTGHRNSEHQQGHLRLVVPTHGNSSAAVS | – | – | no binding
3 | GFP-LMKB(389–1199) (domain or fragment, UniProt Q9Y4F3-1 389-1199) EFICVCDISKENKEVIQELNNCQVTVAHINATAKNAADDKLRQSLRRFANTHTAPATVVLVSTDVNFALELSDLRHRHGFHIILVHKNQASEALLHHANELIRFEEFISDLPPRLPLKMPQCHTLLYVYNLPANKDGKSVSNRLRRLSDNCGGKVLSITGCSAILRFINQDSAERAQKRMENEDVFGNRIIVSFTPKNRELCETKSSNAIADKVKSPKKLKNPKLCLIKDASEQSSSAKATPGKGSQANSGSATKNTNVKSLQELCRMESKTGHRNSEHQQGHLRLVVPTHGNSSAAVSTPKNSGVAEPVYKTSQKKENLSARSVTSSPVEKKDKEETVFQVSYPSAFSKLVASRQVSPLLASQSWSSRSMSPNLLNRASPLAFNIANSSSEADCPDPFANGADVQVSNIDYRLSRKELQQLLQEAFARHGKVKSVELSPHTDYQLKAVVQMENLQDAIGAVNSLHRYKIGSKKILVSLATGAASKSLSLLSAETMSVLQDAPACCLPLFKFTDIYEKKFGHKLNVSDLYKLTDTVAIREQGNGRLVCLLPSSQARQSPLGSSQSHDGSSTNCSPIIFEELEYHEPVCRQHCSNKDFSEHEFDPDSYKIPFVILSLKTFAPQVHSLLQTHEGTVPLLSFPDCYIAEFGDLEVVQENQGGVPLEHFITCVPGVNIATAQNGIKVVKWIHNKPPPPNTDPWLLRSKSPVGNPQLIQFSREVIDLLKSQPSCVIPISHFIPSYHHHFAKQCRVSDYGYSKLIELLEAVPHVLQILGMGSKRLLTLTHRAQVKRFTQDLLKLLKSQASKQVIVRE | – | – | no binding

Continued, values first:

Row | binding [1] | binding [2] | binding [3] | Molecule
4 | – | – | binds | GFP-LMKB(1622–1742) (domain or fragment, UniProt Q9Y4F3-1 1622-1742) VDLLCAPVPSCLPSPQLRPDPVILQSADLIQFEERPQEPSEIMILNQEEKMEIPIPGKSKTLTSDSSSSCISAAVPVPPCPSSETSESLLSKDPVESPAKKQPKNRVKLAANFSLAPITKL
5 | – | – | binds | GFP-LMKB(1457–1742) (domain or fragment, UniProt Q9Y4F3-1 1457-1742) MTLTELLKSLPYLVEVFTNDKMEECVKLTSLYLFAKNVRSLLHTYHYQQIFLHEFSMAYTKYVGETLQPKTYGHSSVEELLGAIPQVVWIKGHGHKRIVVLKNDMKSRLSSLSLSPANHENQPSEGERILEVPESHTASELKLGADGSGPSHTEQELLRLTDDSPVDLLCAPVPSCLPSPQLRPDPVILQSADLIQFEERPQEPSEIMILNQEEKMEIPIPGKSKTLTSDSSSSCISAAVPVPPCPSSETSESLLSKDPVESPAKKQPKNRVKLAANFSLAPITKL

No constants are given. Whether binding was seen depends on the method and setting. Binding calls can cover weak binding; strength is not graded here. Where a sequence is shown, tags or fusion partners need not be part of it. For part of these data: In cells and extracts the contact can be indirect.
